The target in test [1] is IgG-Fc [IgG part: P01857]. Kind of test: general note of Table I; phage clone, M13/gIII display (listed twice: 734 nM at r33, N/A at r71).
For test [2], the target named is IgG-Fc [IgG part: P01857]. Kind of test: general note of Table I; synthetic peptide, its number stands in its own row.
Test [3] has as its target IgG-Fc [IgG part: P01857]. Kind of test: phage display selection on immobilized IgG-Fc.
The target of test [4] is rabbit albumin (rabbit) (UniProt P49065). Kind of test: phage ELISA. On the technique in general: ELISA stands for enzyme-linked immunosorbent assay.
The target in test [5] is rat albumin (rat) (UniProt P02770). Put plainly: phage ELISA.
The target of test [6] is human albumin (human) (UniProt P02768). Kind of test: phage ELISA.
For a further test, the target named is rhesus albumin (rhesus) (UniProt Q28522). Put plainly: phage ELISA, photograph of the plate.
The target of test [7] is rabbit albumin (rabbit) (UniProt P49065). Put plainly: phage ELISA, photograph of the plate.
Another test deals with bovine albumin (bovine) (UniProt P02769). Put plainly: phage ELISA, photograph of the plate.
Test [8] has as its target rat albumin (rat) (UniProt P02770). Put plainly: phage ELISA, photograph of the plate.
Test [9] has as its target human albumin (human) (UniProt P02768). Put plainly: phage ELISA, photograph of the plate.
Another test has as its target mouse albumin (mouse) (UniProt P07724). Kind of test: phage ELISA, photograph of the plate.

Protein sequences, listed by entry. Tags and fused reporters are not part of them. Residues count along the entry.
UniProt P49065, residues 25-608: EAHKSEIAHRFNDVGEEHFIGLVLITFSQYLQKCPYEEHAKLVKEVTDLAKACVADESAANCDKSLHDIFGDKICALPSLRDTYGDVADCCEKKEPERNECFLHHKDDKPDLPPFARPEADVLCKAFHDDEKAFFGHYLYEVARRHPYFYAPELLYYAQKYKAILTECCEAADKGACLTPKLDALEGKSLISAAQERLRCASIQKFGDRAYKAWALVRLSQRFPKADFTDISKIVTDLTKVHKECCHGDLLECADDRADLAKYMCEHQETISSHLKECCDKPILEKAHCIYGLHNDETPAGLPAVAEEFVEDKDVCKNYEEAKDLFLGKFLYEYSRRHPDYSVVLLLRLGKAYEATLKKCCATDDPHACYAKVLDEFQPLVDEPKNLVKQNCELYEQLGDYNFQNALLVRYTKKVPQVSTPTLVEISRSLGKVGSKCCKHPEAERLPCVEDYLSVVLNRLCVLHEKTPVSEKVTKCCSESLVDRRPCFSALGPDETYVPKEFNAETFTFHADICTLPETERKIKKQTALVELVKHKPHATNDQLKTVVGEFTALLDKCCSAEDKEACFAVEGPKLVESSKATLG
UniProt P02770, residues 25-608: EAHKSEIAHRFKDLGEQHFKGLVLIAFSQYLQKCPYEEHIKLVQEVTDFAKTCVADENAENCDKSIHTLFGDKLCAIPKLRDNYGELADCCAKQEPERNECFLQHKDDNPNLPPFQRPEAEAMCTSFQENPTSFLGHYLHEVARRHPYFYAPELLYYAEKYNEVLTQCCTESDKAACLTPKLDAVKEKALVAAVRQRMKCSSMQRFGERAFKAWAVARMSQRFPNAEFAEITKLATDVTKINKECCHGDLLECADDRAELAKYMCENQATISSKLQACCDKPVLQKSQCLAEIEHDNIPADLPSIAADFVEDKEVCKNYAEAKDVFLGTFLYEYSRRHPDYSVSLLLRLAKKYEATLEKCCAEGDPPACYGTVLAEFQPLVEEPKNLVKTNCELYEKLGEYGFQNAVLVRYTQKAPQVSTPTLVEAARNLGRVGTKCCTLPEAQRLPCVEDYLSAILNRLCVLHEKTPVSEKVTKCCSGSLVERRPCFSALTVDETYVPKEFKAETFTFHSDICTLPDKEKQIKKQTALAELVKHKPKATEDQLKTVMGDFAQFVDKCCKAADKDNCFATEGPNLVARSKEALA
UniProt P02768, residues 25-609: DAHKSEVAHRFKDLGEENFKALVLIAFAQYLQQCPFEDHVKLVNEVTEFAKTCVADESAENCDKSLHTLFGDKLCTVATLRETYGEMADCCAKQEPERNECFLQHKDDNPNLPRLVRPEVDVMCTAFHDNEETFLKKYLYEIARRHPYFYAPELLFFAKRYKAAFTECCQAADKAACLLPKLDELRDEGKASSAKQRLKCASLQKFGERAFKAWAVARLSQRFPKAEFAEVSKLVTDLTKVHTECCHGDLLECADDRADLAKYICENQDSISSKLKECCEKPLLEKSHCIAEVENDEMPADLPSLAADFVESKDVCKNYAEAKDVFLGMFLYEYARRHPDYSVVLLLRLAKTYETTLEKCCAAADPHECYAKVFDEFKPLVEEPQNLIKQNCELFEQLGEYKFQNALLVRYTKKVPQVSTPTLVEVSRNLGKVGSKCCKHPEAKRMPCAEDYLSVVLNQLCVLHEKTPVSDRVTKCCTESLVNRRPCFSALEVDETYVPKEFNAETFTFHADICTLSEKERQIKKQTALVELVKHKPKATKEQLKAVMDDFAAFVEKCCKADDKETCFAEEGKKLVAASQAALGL
UniProt Q28522, residues 17-600: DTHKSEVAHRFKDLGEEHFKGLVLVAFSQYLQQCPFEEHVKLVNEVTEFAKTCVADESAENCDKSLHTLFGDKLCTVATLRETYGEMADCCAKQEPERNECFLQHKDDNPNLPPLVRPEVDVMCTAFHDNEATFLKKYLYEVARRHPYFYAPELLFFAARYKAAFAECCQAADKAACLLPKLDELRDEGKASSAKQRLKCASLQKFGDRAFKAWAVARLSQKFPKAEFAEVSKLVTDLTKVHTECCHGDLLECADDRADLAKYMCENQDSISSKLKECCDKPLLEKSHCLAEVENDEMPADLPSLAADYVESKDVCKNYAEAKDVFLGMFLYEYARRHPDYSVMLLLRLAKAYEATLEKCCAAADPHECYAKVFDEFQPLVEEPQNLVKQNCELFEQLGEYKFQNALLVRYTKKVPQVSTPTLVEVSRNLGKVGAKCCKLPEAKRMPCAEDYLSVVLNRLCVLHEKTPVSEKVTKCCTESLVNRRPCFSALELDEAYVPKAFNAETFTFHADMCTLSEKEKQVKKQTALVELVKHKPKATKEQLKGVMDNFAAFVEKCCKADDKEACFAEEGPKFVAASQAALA
UniProt P02769, residues 25-607: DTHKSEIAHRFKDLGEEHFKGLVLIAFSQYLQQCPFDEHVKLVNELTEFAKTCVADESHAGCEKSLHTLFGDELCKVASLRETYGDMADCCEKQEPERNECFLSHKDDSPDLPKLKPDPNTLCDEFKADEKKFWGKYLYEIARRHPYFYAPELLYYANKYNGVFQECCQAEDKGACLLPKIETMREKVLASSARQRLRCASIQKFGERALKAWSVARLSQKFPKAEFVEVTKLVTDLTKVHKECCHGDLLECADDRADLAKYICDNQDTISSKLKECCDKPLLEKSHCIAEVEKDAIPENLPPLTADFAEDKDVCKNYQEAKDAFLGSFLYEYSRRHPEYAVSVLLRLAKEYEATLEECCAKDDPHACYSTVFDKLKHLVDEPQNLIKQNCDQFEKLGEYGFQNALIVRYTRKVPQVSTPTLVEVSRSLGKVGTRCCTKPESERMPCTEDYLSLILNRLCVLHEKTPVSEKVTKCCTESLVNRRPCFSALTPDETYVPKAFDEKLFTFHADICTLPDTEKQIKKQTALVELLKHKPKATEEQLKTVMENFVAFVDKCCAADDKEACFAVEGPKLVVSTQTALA
UniProt P07724, residues 25-608: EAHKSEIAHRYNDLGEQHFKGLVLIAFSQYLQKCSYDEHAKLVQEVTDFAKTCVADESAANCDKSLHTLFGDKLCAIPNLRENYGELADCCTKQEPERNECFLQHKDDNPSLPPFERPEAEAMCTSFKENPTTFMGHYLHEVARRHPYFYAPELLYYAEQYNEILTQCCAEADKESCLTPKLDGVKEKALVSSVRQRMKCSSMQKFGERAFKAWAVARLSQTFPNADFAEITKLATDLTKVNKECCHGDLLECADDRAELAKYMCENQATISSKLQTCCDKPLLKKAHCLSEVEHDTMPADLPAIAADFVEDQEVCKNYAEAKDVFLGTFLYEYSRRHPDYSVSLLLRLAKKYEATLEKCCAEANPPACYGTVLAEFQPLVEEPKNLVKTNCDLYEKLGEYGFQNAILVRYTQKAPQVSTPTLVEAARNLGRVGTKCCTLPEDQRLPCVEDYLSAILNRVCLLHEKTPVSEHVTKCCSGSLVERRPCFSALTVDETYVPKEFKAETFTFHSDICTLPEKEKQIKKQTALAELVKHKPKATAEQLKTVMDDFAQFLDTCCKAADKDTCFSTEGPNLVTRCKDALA

Results are given in words; binding and its absence hold for the method and conditions named. Some binding calls cover weakened binding; strength is not graded here. For some of these results: Where a sequence is shown, tags or fusion partners need not be part of it.

As to KEASCSYWLGELVWCSPGVE [phage clone …], the binding result in test [1] is given as “binds”.
As to DLADCSWHMGELVWCSRVEG (N-terminal amine and C-terminal amide), the binding result in test [2] was “binds”.
As for ETQRCTWHMGELVWCEREHN (N-terminal amine and C-terminal amide) [Fc-I peptide …], the binding entry in [3] and in [2] was “binds” in each case.
As for QRHPEDICLPRWGCLWGDDD [RB-H1], the binding result in the test with rabbit albumin (rabbit) [4], with rat albumin (rat) [5], with human albumin (human) [6], with rhesus albumin (rhesus), with rabbit albumin (rabbit) [7] and with bovine albumin (bovine) was “binds” in each case. The binding entry with rat albumin (rat) [8], with human albumin (human) [9] and with mouse albumin (mouse) was “binds” throughout.
KEASCSYWLGELVWCVAGVE (N-terminal amine and C-terminal amide) [Fc-II peptide …]: the binding entry in [3] and in test [2] was “binds” throughout.
As for WEADCAWHLGELVWCTPMEF (N-terminal amine and C-terminal amide), the binding result in [2] is given as “binds”.

Values taken from patent US20040253247A1.
